Measurements from article PMC4312039.
These are yes or no findings as the source states them, for the method shown. In cells and extracts the contact can be indirect. Some binding calls cover weakened binding; strength is not graded here. Sequences can lack the tags named with a protein.

T1: Shrub-GFP (GFP-tagged Shrub, from pAc-Shrub-GFP) (Drosophila melanogaster) (UniProt Q8T0Q4)
T1 sequence: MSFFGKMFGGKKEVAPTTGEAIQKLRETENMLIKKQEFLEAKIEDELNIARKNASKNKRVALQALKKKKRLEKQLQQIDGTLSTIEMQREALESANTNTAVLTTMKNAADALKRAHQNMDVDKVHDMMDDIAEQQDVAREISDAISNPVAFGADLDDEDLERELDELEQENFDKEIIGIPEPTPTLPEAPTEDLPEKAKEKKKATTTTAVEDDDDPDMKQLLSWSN

T2: GFP-ALIX-F198D (Drosophila melanogaster) (UniProt Q9VB05)
T2 sequence: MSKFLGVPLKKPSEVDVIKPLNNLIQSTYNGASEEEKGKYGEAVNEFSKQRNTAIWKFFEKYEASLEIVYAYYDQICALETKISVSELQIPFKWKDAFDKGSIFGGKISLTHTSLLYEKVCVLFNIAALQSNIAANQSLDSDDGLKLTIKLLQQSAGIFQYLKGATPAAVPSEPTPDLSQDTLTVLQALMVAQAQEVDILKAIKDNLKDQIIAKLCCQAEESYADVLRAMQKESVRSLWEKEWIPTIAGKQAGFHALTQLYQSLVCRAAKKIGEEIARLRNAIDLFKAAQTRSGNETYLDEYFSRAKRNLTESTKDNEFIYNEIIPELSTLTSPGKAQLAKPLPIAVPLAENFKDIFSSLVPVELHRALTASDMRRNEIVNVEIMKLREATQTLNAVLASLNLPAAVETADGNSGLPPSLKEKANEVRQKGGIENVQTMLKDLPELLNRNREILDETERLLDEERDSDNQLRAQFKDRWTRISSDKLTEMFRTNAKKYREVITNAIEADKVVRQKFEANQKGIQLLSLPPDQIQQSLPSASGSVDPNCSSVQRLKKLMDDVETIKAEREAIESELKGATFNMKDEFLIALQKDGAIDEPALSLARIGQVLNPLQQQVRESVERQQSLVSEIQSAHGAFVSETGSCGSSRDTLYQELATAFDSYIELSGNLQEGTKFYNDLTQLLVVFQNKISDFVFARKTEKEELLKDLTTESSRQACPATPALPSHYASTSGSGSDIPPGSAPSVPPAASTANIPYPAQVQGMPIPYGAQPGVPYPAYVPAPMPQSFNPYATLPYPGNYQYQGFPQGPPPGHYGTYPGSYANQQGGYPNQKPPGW

T3: GFP-ALIX-I211D (Drosophila melanogaster) (UniProt Q9VB05)
T3 sequence: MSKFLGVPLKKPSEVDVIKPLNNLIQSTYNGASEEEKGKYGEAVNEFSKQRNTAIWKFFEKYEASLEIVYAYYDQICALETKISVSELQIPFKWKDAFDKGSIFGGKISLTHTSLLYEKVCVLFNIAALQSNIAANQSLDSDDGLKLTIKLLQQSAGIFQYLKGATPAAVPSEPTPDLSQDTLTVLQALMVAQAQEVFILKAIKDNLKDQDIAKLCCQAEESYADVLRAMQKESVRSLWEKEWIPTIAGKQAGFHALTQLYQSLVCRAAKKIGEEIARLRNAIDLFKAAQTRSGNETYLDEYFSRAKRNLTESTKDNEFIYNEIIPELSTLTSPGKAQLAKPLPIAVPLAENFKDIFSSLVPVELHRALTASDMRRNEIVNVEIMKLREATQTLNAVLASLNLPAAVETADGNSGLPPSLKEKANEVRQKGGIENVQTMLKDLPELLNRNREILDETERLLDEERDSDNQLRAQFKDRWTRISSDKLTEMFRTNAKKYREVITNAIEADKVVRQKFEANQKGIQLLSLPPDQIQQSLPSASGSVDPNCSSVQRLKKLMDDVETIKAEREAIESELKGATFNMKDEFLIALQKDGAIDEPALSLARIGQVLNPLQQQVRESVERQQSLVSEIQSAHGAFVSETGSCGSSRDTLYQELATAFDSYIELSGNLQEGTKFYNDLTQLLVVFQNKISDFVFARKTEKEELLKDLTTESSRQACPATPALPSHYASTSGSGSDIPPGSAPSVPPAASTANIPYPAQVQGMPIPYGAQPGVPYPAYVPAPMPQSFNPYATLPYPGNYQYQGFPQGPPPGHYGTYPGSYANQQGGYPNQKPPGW

T4: wild type GFP-ALIX (GFP-ALIX-wt, from pAGW-ALIX-wt) (Drosophila melanogaster) (UniProt Q9VB05)
T4 sequence: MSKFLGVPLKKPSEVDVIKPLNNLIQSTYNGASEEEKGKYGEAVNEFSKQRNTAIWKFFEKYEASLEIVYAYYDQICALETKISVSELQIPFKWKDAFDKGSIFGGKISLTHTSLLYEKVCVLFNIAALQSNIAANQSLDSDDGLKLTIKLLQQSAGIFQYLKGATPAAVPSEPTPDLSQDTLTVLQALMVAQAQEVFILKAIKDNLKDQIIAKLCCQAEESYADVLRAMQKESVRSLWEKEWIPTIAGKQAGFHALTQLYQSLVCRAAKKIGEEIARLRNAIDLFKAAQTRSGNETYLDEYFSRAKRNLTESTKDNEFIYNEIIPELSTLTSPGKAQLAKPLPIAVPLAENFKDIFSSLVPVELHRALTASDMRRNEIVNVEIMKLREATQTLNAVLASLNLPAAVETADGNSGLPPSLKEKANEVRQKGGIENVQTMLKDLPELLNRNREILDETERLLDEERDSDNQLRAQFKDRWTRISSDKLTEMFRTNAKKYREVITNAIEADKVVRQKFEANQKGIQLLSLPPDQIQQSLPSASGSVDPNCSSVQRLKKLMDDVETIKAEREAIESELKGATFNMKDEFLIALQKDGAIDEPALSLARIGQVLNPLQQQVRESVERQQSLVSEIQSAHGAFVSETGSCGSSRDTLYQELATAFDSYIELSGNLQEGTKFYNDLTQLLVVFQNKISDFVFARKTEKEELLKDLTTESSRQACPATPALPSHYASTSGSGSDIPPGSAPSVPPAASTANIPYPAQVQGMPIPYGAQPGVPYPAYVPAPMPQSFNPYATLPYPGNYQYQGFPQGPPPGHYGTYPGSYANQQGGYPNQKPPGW


Key:
Experiment in all cases: co-IP; GFP trap beads on lysates of Dmel cells transiently transfected for 48 h, mitotic cells enriched with MG132 (25 µM, 5 h); lysis in 10 mM Tris-HCl pH 7.5, 150 mM NaCl, 0.5 mM EDTA, 0.5% NP-40; beads 1 hour at 4°C; the endogenous partner detected by immunoblotting
[1] = molecular target: T1, Shrub-GFP (GFP-tagged Shrub, from pAc-Shrub-GFP) (Drosophila melanogaster)
[2] = molecular target: T2, GFP-ALIX-F198D (Drosophila melanogaster)
[3] = molecular target: T3, GFP-ALIX-I211D (Drosophila melanogaster)
[4] = molecular target: T4, wild type GFP-ALIX (GFP-ALIX-wt, from pAGW-ALIX-wt) (Drosophila melanogaster)

| binding [1] | binding [2] | binding [3] | binding [4] | Binder |
| --- | --- | --- | --- | --- |
| binds | – | – | – | ALIX (ALG-2-interacting protein X), endogenous Drosophila protein (protein, UniProt Q9VB05 1-836) MSKFLGVPLKKPSEVDVIKPLNNLIQSTYNGASEEEKGKYGEAVNEFSKQRNTAIWKFFEKYEASLEIVYAYYDQICALETKISVSELQIPFKWKDAFDKGSIFGGKISLTHTSLLYEKVCVLFNIAALQSNIAANQSLDSDDGLKLTIKLLQQSAGIFQYLKGATPAAVPSEPTPDLSQDTLTVLQALMVAQAQEVFILKAIKDNLKDQIIAKLCCQAEESYADVLRAMQKESVRSLWEKEWIPTIAGKQAGFHALTQLYQSLVCRAAKKIGEEIARLRNAIDLFKAAQTRSGNETYLDEYFSRAKRNLTESTKDNEFIYNEIIPELSTLTSPGKAQLAKPLPIAVPLAENFKDIFSSLVPVELHRALTASDMRRNEIVNVEIMKLREATQTLNAVLASLNLPAAVETADGNSGLPPSLKEKANEVRQKGGIENVQTMLKDLPELLNRNREILDETERLLDEERDSDNQLRAQFKDRWTRISSDKLTEMFRTNAKKYREVITNAIEADKVVRQKFEANQKGIQLLSLPPDQIQQSLPSASGSVDPNCSSVQRLKKLMDDVETIKAEREAIESELKGATFNMKDEFLIALQKDGAIDEPALSLARIGQVLNPLQQQVRESVERQQSLVSEIQSAHGAFVSETGSCGSSRDTLYQELATAFDSYIELSGNLQEGTKFYNDLTQLLVVFQNKISDFVFARKTEKEELLKDLTTESSRQACPATPALPSHYASTSGSGSDIPPGSAPSVPPAASTANIPYPAQVQGMPIPYGAQPGVPYPAYVPAPMPQSFNPYATLPYPGNYQYQGFPQGPPPGHYGTYPGSYANQQGGYPNQKPPGW |
| – | binds weakly | binds weakly | binds | Shrub, endogenous Drosophila protein (protein, UniProt Q8T0Q4 1-226) MSFFGKMFGGKKEVAPTTGEAIQKLRETENMLIKKQEFLEAKIEDELNIARKNASKNKRVALQALKKKKRLEKQLQQIDGTLSTIEMQREALESANTNTAVLTTMKNAADALKRAHQNMDVDKVHDMMDDIAEQQDVAREISDAISNPVAFGADLDDEDLERELDELEQENFDKEIIGIPEPTPTLPEAPTEDLPEKAKEKKKATTTTAVEDDDDPDMKQLLSWSN |
